The values below come from publication PMC10023157.

Chains of the proteins cited; added tags and fusions are not shown. Residues count along the entry.
UniProt Q07955, 1-196, stated change not applied: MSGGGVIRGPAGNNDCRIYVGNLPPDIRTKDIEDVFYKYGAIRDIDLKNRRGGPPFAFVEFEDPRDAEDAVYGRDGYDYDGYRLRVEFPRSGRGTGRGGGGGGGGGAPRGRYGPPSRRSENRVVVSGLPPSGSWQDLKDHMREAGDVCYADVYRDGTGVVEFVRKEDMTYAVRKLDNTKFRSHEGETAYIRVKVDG
UniProt Q07955, whole entry: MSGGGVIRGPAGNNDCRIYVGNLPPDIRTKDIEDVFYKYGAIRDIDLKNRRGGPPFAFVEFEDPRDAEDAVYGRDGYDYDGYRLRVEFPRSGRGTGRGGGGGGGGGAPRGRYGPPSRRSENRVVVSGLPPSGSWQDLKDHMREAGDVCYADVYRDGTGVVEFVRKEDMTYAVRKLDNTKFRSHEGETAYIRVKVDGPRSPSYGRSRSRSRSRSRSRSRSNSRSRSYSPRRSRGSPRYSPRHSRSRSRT

The exact form of at least one protein or probe is not confirmed. At least one verdict rests on a figure or table, not on a statement of the authors.

In one series the target is SRSF1 deltaRS (human) (UniProt Q07955). As to conditions: recombinant protein; protein details: SUMO (pSMT3) His tag removed by Ulp1.
Series [1] deals with SRSF1 (unphosphorylated) (human) (UniProt Q07955). The experiment in a line: fluorescence polarization. As to conditions: 100 mM ER4, 400 mM Arg/Glu, pH 6.5, binding weakened but not abolished, Kd only in figure, Fluorescence polarization: 100 mM ER4 peptide, temperature not stated, three technical replicates, recombinant protein, protein details: SUMO (pSMT3) His tag removed by Ulp1, label: 5' Alexa488. On the technique in general: Fluorescence polarisation rises when a labelled molecule tumbles more slowly, as on binding a larger partner.

UCAGAGGA [UCAGAGGA (SRSF1 cognate RNA)]: the binding result with SRSF1 deltaRS (human) is reported as “binds”.

UCAGAGGA [Alexa488-UCAGAGGA]: in series [1], the binding result was “binds”.
